The record followed here is PMC9988979.

For test [1], the target named is T1, ACOX1, endogenous (human (endogenous in HCT15 and RKO)) (UniProt Q15067).
T1 sequence: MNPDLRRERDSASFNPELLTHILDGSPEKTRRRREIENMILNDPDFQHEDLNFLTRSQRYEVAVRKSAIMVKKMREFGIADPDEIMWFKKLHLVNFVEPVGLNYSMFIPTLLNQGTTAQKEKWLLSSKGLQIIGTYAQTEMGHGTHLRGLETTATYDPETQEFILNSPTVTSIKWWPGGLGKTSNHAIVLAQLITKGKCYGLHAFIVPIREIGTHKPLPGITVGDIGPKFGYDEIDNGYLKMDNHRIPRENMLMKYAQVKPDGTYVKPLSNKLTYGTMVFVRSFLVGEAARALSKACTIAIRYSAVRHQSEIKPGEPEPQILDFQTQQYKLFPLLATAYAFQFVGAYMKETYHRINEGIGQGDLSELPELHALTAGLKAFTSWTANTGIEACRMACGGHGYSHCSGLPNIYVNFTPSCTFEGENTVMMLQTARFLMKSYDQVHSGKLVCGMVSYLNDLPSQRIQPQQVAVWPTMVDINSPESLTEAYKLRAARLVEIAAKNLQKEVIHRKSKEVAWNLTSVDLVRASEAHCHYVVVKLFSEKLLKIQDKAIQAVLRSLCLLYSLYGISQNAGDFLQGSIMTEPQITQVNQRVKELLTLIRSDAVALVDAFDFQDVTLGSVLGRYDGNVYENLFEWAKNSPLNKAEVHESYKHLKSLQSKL
Put plainly: co-IP; endogenous proteins in HCT15 and RKO cells; cells treated with MG132 (20 μM) for 6 h before harvest.

The target in test [2] is T2, Flag-tagged ACOX1 (acyl-CoA oxidase 1) (human) (UniProt Q15067).
T2 sequence: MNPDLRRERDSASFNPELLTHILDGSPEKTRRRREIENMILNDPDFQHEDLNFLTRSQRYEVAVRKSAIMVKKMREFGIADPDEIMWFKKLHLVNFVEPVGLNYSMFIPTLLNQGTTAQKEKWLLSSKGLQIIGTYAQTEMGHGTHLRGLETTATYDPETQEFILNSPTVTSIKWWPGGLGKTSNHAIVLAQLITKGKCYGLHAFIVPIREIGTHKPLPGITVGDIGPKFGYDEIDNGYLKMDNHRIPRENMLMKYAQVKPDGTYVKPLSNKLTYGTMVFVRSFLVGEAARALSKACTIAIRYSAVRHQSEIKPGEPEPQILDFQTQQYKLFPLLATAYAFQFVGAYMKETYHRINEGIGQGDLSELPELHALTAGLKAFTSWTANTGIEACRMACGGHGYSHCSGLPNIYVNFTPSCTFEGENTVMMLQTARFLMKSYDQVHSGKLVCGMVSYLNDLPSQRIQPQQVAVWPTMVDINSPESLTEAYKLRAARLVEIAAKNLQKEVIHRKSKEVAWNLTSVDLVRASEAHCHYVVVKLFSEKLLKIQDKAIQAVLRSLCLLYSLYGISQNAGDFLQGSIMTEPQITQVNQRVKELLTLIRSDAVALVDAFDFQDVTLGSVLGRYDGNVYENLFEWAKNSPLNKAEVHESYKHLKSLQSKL
Put plainly: co-IP; HEK293T cells transfected with ACOX1 or DUSP14 whole and deletion constructs; lysates on anti-Flag agarose beads overnight at 4 °C, immunoblot. (In western blotting, separated proteins are transferred to a membrane and probed.)

The target in test [3] is ACOX1 (glutaraldehyde cross-linking experiment) (not stated (human or mouse cDNA cloned)) (UniProt Q15067). Briefly: cross-linking; glutaraldehyde cross-linking of ACOX1 (Supplementary Fig. S6g); conditions not shown.

These are yes or no findings as the source states them, for the method shown. Binding seen in cells or lysates may run through a third protein. Some results given as binding are weak or reduced against the parent protein; the word gives no strength. For part of these data: Sequences can lack the tags named with a protein.

B1: DUSP14, endogenous (enzyme, UniProt O95147 1-198)
chain: MSSRGHSTLPRTLMAPRMISEGDIGGIAQITSSLFLGRGSVASNRHLLQARGITCIVNATIEIPNFNWPQFEYVKVPLADMPHAPIGLYFDTVADKIHSVSRKHGATLVHCAAGVSRSATLCIAYLMKFHNVCLLEAYNWVKARRPVIRPNVGFWRQLIDYERQLFGKSTVKMVQTPYGIVPDVYEKESRHLMPYWGI
B1: the binding entry in test [1] was “binds”.

B2: DUSP14, transfected in HEK293T (enzyme, UniProt O95147 1-198)
chain: MSSRGHSTLPRTLMAPRMISEGDIGGIAQITSSLFLGRGSVASNRHLLQARGITCIVNATIEIPNFNWPQFEYVKVPLADMPHAPIGLYFDTVADKIHSVSRKHGATLVHCAAGVSRSATLCIAYLMKFHNVCLLEAYNWVKARRPVIRPNVGFWRQLIDYERQLFGKSTVKMVQTPYGIVPDVYEKESRHLMPYWGI
Regarding B2, the binding entry in test [2] was “binds”.

B3: ACOX1 (glutaraldehyde cross-linking experiment) (enzyme, UniProt Q15067 1-660)
chain: MNPDLRRERDSASFNPELLTHILDGSPEKTRRRREIENMILNDPDFQHEDLNFLTRSQRYEVAVRKSAIMVKKMREFGIADPDEIMWFKKLHLVNFVEPVGLNYSMFIPTLLNQGTTAQKEKWLLSSKGLQIIGTYAQTEMGHGTHLRGLETTATYDPETQEFILNSPTVTSIKWWPGGLGKTSNHAIVLAQLITKGKCYGLHAFIVPIREIGTHKPLPGITVGDIGPKFGYDEIDNGYLKMDNHRIPRENMLMKYAQVKPDGTYVKPLSNKLTYGTMVFVRSFLVGEAARALSKACTIAIRYSAVRHQSEIKPGEPEPQILDFQTQQYKLFPLLATAYAFQFVGAYMKETYHRINEGIGQGDLSELPELHALTAGLKAFTSWTANTGIEACRMACGGHGYSHCSGLPNIYVNFTPSCTFEGENTVMMLQTARFLMKSYDQVHSGKLVCGMVSYLNDLPSQRIQPQQVAVWPTMVDINSPESLTEAYKLRAARLVEIAAKNLQKEVIHRKSKEVAWNLTSVDLVRASEAHCHYVVVKLFSEKLLKIQDKAIQAVLRSLCLLYSLYGISQNAGDFLQGSIMTEPQITQVNQRVKELLTLIRSDAVALVDAFDFQDVTLGSVLGRYDGNVYENLFEWAKNSPLNKAEVHESYKHLKSLQSKL
For the molecule B3, in test [3], the binding result was “binds”.
